In the assay the target is HERG-1a-Citrine (human). Nature of the assay: FRET between eCFP and Citrine fusions in Xenopus oocytes.

These are yes or no findings as the source states them, for the method shown. Some binding calls cover weakened binding; strength is not graded here. Where a sequence is shown, tags or fusion partners need not be part of it.

B1: HERG-1a-eCFP (protein)
chain: MPVRRGHVAPQNTFLDTIIRKFEGQSRKFIIANARVENCAVIYCNDGFCELCGYSRAEVMQRPCTCDFLHGPRTQRRAAAQIAQALLGAEERKVEIAFYRKDGSCFLCLVDVVPVKNEDGAVIMFILNFEVVMEKDMVGSPAHDTNHRGPPTSWLAPGRAKTFRLKLPALLALTARESSVRSGGAGGAGAPGAVVVDVDLTPAAPSSESLALDEVTAMDNHVAGLGPAEERRALVGPGSPPRSAPGQLPSPRAHSLNPDASGSSCSLARTRSRESCASVRRASSADDIEAMRAGVLPPPPRHASTGAMHPLRSGLLNSTSDSDLVRYRTISKIPQITLNFVDLKGDPFLASPTSDREIIAPKIKERTHNVTEKVTQVLSLGADVLPEYKLQAPRIHRWTILHYSPFKAVWDWLILLLVIYTAVFTPYSAAFLLKETEEGPPATECGYACQPLAVVDLIVDIMFIVDILINFRTTYVNANEEVVSHPGRIAVHYFKGWFLIDMVAAIPFDLLIFGSGSEELIGLLKTARLLRLVRVARKLDRYSEYGAAVLFLLMCTFALIAHWLACIWYAIGNMEQPHMDSRIGWLHNLGDQIGKPYNSSGLGGPSIKDKYVTALYFTFSSLTSVGFGNVSPNTNSEKIFSICVMLIGSLMYASIFGNVSAIIQRLYSGTARYHTQMLRVREFIRFHQIPNPLRQRLEEYFQHAWSYTNGIDMNAVLKGFPECLQADICLHLNRSLLQHCKPFRGATKGCLRALAMKFKTTHAPPGDTLVHAGDLLTALYFISRGSIEILRGDVVVAILGKNDIFGEPLNLYARPGKSNGDVRALTYCDLHKIHRDDLLEVLDMYPEFSDHFWSSLEITFNLRDTNMIPGSPGSTELEGGFSRQRKRKLSFRRRTDKDTEQPGEVSALGPGRAGAGPSSRGRPGGPWGESPSSGPSSPESSEDEGPGRSSSPLRLVPFSSPRPPGEPPGGEPLMEDCEKSSDTCNPLSGAFSGVSNIFSFWGDSRGRQYQELPRCPAPTPSLLNIPLSSPGRRPRGDVESRLDALQRQLNRLETRLSADMATVLQLLQRQMTLVPPAYSAVTTPGPGPTSTSPLLPVSPLPTLTLDSLSQVSQFMACEELPPGAPELPQEGPTRRLSLPGQLGALTSQPLHRHGSDPGSMVSKGEELFTGVVPILVELDGDVNGHRFSVSGEGEGDATYGKLTLKFICTTGKLPVPWPTLVTTLTWGVQCFSRYPDHMKQHDFFKSAMPEGYVQERTIFFKDDGNYKTRAEVKFEGDTLVNRIELKGIDFKEDGNILGHKLEYNYISHNVYITADKQKNGIKAHFKIRHNIEDGSVQLADHYQQNTPIGDGPVLLPDNHYLSTQSKLSKDPNEKRDHMVLLEFVTAAGITLGMDELYK
In the case of B1, the binding result is given as “binds”.

These data come from patent publication US20090047703A1.
